The values below come from patent publication US7034070B2, “Arylalkyl aminofunctional silanes for epoxy laminates” (priority 2002, dated 2006).

A short description of the data set: Tensile strength of silane-treated glass fabrics. To be noted: 40% solids product, 7628 glass fabric.

For “CH3CH2C6H4CH2NH(CH2)2NH(CH2)3Si(OCH3)3•HCl [Example 1]”, the “RTS % (relative tensile strength, 128.7 kg/5 cm of 0.67% Z-6224 taken as 100)” value (Silane Conc. 0.40%) stood at 95.5%; the “RTS % (relative tensile strength, 128.7 kg/5 cm of 0.67% Z-6224 taken as 100)” value (Silane Conc. 0.67%) came to 109%; the “RTS % (relative tensile strength, 128.7 kg/5 cm of 0.67% Z-6224 taken as 100)” value (Silane Conc. 1.00%) amounted to 108%. Besides, the “Tensile Strength (at break)” value is listed as 122.9 kg/5 cm (Silane Conc. 0.40%), 140.4 kg/5 cm (Silane Conc. 0.67%) and 139.1 kg/5 cm (Silane Conc. 1.00%).

On to “CH3CH2C6H4CH2NH(CH2)2NH(CH2)3SiCH3(OCH3)2•HCl [Example 3]”, for which, where the note is “Silane Conc. 0.67%”, the “RTS % (relative tensile strength, 128.7 kg/5 cm of 0.67% Z-6224 taken as 100)” value was determined as 109% and the “Tensile Strength (at break)” value was 140 kg/5 cm.
